Source: PubChem BioAssay AID588590 (National Center for Advancing Translational Sciences (NCATS), 2011)
Among all 390,000 compounds or so, about 4,000 (1%) were called active. This list was built around the results that the source calls inconclusive (neither active nor inactive); the mix of calls is not that of the screen. Calls come from the whole dose curve; as a rule, active = well fitted inhibition curve with a large enough effect; inconclusive = small, poorly fitted or top-dose-only effect, or another doubt; inactive = no such curve, though single readings can be large or run the other way. Where the call is inconclusive, the potency comes from a doubtful curve fit.

Sequences of proteins named here, by UniProt entry; tags and fusion partners are left off. A change or cut given only in a name is not applied to a line headed by its entry.
UniProt Q9UNA4: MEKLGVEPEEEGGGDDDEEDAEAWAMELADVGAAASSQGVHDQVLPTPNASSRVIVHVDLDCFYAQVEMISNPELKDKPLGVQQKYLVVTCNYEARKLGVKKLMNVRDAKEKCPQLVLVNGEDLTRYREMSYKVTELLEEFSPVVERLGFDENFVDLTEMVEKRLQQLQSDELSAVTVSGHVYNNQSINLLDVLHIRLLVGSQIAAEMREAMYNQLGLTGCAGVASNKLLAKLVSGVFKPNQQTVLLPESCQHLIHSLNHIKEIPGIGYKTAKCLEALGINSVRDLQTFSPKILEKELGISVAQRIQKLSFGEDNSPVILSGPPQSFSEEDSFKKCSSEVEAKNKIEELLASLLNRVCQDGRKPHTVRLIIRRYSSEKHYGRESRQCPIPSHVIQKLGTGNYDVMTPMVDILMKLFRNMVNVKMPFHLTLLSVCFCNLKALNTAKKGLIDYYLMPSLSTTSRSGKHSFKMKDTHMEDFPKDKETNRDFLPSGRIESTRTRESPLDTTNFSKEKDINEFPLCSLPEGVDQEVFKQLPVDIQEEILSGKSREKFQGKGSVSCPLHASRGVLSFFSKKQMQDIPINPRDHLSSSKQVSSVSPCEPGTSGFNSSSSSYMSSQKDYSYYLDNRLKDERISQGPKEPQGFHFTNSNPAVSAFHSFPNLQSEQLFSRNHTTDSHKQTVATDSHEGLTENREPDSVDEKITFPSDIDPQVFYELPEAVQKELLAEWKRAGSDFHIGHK

molecular target: DNA polymerase iota (Homo sapiens) (UniProt Q9UNA4); assay: qHTS for Inhibitors of Polymerase Iota; conditions: Pol iota fluorescent replication assay, 10 min; series mostly up to 115 µM
In short: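 Pol iota at 10 nM preincubated 15 min with compounds at room temperature; reaction started with fluorescent substrate, 50 nM final. Fluorescence read kinetically at 0 and 10 min; buffer-only wells as negative control.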
Potency is the fitted concentration of half-maximal effect.

Potency, inconclusive:
COc1ccc(C(=O)Nc2ccccc2N2CCN(C(=O)C(C)C)CC2)cc1Cl 5.62 µM [inhibitor, full curve, poor fit]
O=C1c2ccccc2C(=O)N1CCc1csc(NNc2nc(CCN3C(=O)c4ccccc4C3=O)cs2)n1 12.6 µM [inhibitor, full curve, poor fit]
O=C(CSc1ncnc2nc[nH]c12)Nc1nnc(SCc2ccc(Cl)c(Cl)c2)s1 50.1 µM [inhibitor, partial curve, poor fit]
Cc1c(NC(=O)COC(=O)/C=C/c2cccc(Br)c2)c(=O)n(-c2ccccc2)n1C 89.1 µM [inhibitor, single point]
O=C(Nc1ncccc1O)c1ccc2c(c1)OCO2 31.6 µM [inhibitor, single point]
O=C(Nc1nc(-c2ccc(Cl)s2)cs1)c1ccccc1 39.8 µM [inhibitor, single point]
Cc1ccc(-n2c(C)cc(/C=C3\SC(=O)NC3=O)c2C)cc1 22.4 µM [inhibitor, partial curve, poor fit]
CCc1ccc(NS(=O)(=O)c2ccc3[nH]cc(C(=O)NCCc4cccc(C)c4)c(=O)c3c2)cc1 89.1 µM [inhibitor, partial curve, poor fit]
Cc1ccc2c(c1)C(=O)C(=O)N2Cc1ccc(Br)cc1 39.8 µM [inhibitor, partial curve, poor fit]
Fc1ccc(-n2[nH]nnc2=S)cc1N1CCCC1 35.5 µM [inhibitor, full curve]
CCOc1ccccc1NC(=O)c1ccc2[nH]c(C)c(C)c2c1 31.6 µM [inhibitor, partial curve, poor fit]
C=CCn1c(SCC(=O)c2ccc(CNC(C)=O)o2)nc2scc(C3CC3)c2c1=O 25.1 µM [inhibitor, full curve, poor fit]
CS(=O)(=O)N(CC(=O)Nc1cccc([N+](=O)[O-])c1)c1cccc(F)c1 50.1 µM [inhibitor, partial curve, poor fit]
O=C(NCCc1ccc(Cl)cc1)c1ccc(Cn2c(=O)c3cccn3c3cccnc32)cc1 89.1 µM [inhibitor, partial curve, poor fit]
O=C/C=C/c1c(-c2ccccc2)cc2oc3ccccc3cc1-2 14.1 µM [inhibitor, partial curve, poor fit]
CCc1cc2c(=O)c(-c3ccc4c(c3)OCO4)coc2c(CN(C)C)c1O 70.8 µM [inhibitor, single point]
C=CCc1cccc2cc(C(=O)Nc3cccc(C(=O)O)c3)c(=O)oc12 2.24 µM [inhibitor, full curve, poor fit]
Cc1ccc(NC(=O)COc2ccc(/C=N/NC(=O)CSCc3ccccc3)cc2)cc1 89.1 µM [inhibitor, single point]
COc1cccc(/C(O)=C2/C(=O)C(=O)N(Cc3ccco3)C2c2ccncc2)c1 (stereo not given) 39.8 µM [inhibitor, partial curve, poor fit]
CCC1Oc2ccc(C)cc2N(CC(=O)NCc2ccco2)C1=O (stereo not given) 44.7 µM [inhibitor, partial curve, poor fit]
Cc1cc2oc(=O)c(CC(=O)O)c(C)c2c2occ(-c3ccc(F)cc3)c12 79.4 µM [inhibitor, single point]
CCN(c1ccc(C)cc1)S(=O)(=O)c1nnc(NC(=O)c2ccco2)s1 56.2 µM [inhibitor, partial curve]
COc1ccc(CN(Cc2ccccc2)C(=O)CN2CCN(C)CC2)cc1COc1ccc(NC(C)=O)cc1 20 µM [inhibitor, partial curve, poor fit]
COc1ccc(/C=N\NC(=O)c2ccc(F)cc2)cc1COc1cc(F)ccc1[N+](=O)[O-] 100 µM [inhibitor, partial curve, poor fit]
CCC(c1nnnn1C(C)(C)C)N1CCN(Cc2ccccc2OC)CC1 (stereo not given) 14.1 µM [inhibitor, full curve, poor fit]
Cc1cccc(C(=O)N2CCN(c3ccc([N+](=O)[O-])c(N4CCOCC4)c3)CC2)c1 11.2 µM [inhibitor, single point]
Cc1cc(OC(=O)c2cccc(Br)c2)c([N+](=O)[O-])c(=O)[nH]1 15.8 µM [inhibitor, partial curve, poor fit]
Cc1cc(F)ccc1NCc1cc2c(cc1[N+](=O)[O-])OCO2 20 µM [inhibitor, partial curve, poor fit]

A section of the results above:
Potency, inconclusive:
Cc1ccc2c(c1)C(=O)C(=O)N2Cc1ccc(Br)cc1 39.8 µM [inhibitor, partial curve, poor fit]
Fc1ccc(-n2[nH]nnc2=S)cc1N1CCCC1 35.5 µM [inhibitor, full curve]
CCOc1ccccc1NC(=O)c1ccc2[nH]c(C)c(C)c2c1 31.6 µM [inhibitor, partial curve, poor fit]
C=CCn1c(SCC(=O)c2ccc(CNC(C)=O)o2)nc2scc(C3CC3)c2c1=O 25.1 µM [inhibitor, full curve, poor fit]
CS(=O)(=O)N(CC(=O)Nc1cccc([N+](=O)[O-])c1)c1cccc(F)c1 50.1 µM [inhibitor, partial curve, poor fit]
O=C(NCCc1ccc(Cl)cc1)c1ccc(Cn2c(=O)c3cccn3c3cccnc32)cc1 89.1 µM [inhibitor, partial curve, poor fit]

Next part.

Potency, inactive:
COc1cccc(CNC(=O)c2ccc3nc(N4CCCCC4)sc3c2)c1OC
COc1ccc(-n2cccc2/C=C2/NC(=O)N(c3cccc(Cl)c3)C2=O)cc1
O=C1NC(c2ccccc2)=N/C1=C/c1ccco1
CN(C)C(=O)c1cc(C(=O)c2ccccc2C(F)(F)F)c[nH]1
O=C(Nc1nnc(-c2ccncc2)s1)C1CCCO1 (stereo not given)
COc1ccc(Cn2c(CNS(=O)(=O)c3ccc4c(c3)CCCC4)nc3cccnc32)cc1
COCCCn1c(=S)[nH]c2sc3c(c2c1=O)CCCS3
COc1ccc(CCNC(=O)CCCn2c(=O)c3ccccc3n(Cc3ccc(F)cc3Cl)c2=O)cc1OC
CCCCCNC(=O)c1ccc2c(=O)n(CCOC)c(=O)[nH]c2c1
COc1ccc(-n2c(=O)c3c4c(sc3n(Cc3cc(C)ccc3C)c2=O)CN(C(C)=O)CC4)c(OC)c1

Potency, active:
COc1cccc(C2c3[nH]c4ccccc4c3C[C@H]3C(=O)N(C4CC4)CC(=O)N23)c1 (stereo not given in full) 31.6 µM
COc1ccc(Cl)cc1NC(=O)CCS(=O)(=O)c1ccc(Br)cc1 56.2 µM
